# Laboratory results from PubChem BioAssay AID2685 (National Center for Advancing Translational Sciences (NCATS), 2010).
# The list shows a part of the results. The main result of the screen is listed elsewhere. These columns were measured beside it and carry no call. Compounds called inactive in the main read-out are mostly missing here. The note in brackets gives the kind of curve behind each potency; many fits are weak.
# Assay: qHTS Assay for Lipid Storage Modulators in Drosophila S3 Cells;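 on cell number change: cells counted by Cell Tracker Red CMTPX staining in the red channel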
# Conditions: BODIPY lipid droplet fluorescence, 18-24 h; for cell number change: measured here: cell count max response, cells fed with added oleic acid
# Summary of the method: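 Drosophila S3 cells got compounds at several concentrations plus oleic acid (400 uM solution). Laser-scanning cytometry with 488 nm excitation read lipid droplets at 500-530 nm and cells at 575-640 nm. Percent activity was relative to 20 uM Triacsin C.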
# [1] = measured here: cell number channel AC50, cells fed with added oleic acid
# [2] = measured here: lipid fluorescence (Fed channel) AC50, cells fed with added oleic acid
SMILES,cell number change [%],AC50 [1],AC50 [2]
CCOC(=O)Nc1ccc(NCc2ccc(F)cc2)nc1N,15.9,"6.51 µM [rising, single point]",
Cc1cccc(C(=O)N/C(=C\c2ccco2)C(=O)N2CCCC2)c1,-3.36,,"16.4 µM [rising, single point]"
O=S(=O)(c1ccc(Cl)cc1)N1CN(CC2CCCO2)c2nc3ccccc3nc21 (stereo unspecified),11.9,,"29.1 µM [rising, single point]"
CC(C)Sc1nc2c(c(=O)n1C)SC(C)C2 (stereo unspecified),29.2,,"0.092 µM [falling, full curve, poor fit]"
c1ccc2c(c1)OCCOCCOCCOCCOCCOc1ccccc1OCCOCCOCCO2,-69.9,"4.11 µM [falling, partial curve, poor fit]","32.6 µM [falling, partial curve]"
O=S(=O)(Nc1ccc2nc(-c3ccc(Br)o3)[nH]c2c1)c1ccccc1,-3.57,,"3.66 µM [falling, single point]"
CC(NC(=O)c1cc(=O)[nH]c2ccccc12)c1ccc(F)cc1F (stereo unspecified),40.8,"29.1 µM [rising, single point]","11.2 µM [falling, partial curve]"
O=c1[nH]c(/C=C/c2ccccc2)c([N+](=O)[O-])c(=O)[nH]1,-20.1,,"0.058 µM [falling, full curve, poor fit]"
Cc1cccc(-c2ccc(NC(=O)C3CCN(CC4CC4)CC3)cc2)c1,11.9,,"0.13 µM [rising, full curve, poor fit]"
CCCC(=O)Nc1ccc(-c2csc(-c3cccnc3)n2)cc1,-28.3,,"29.1 µM [falling, single point]"
COc1cc(NC(=O)c2ccc(C)cc2)ccc1NC(=O)c1cc2ccccc2o1,-13.5,"4.61 µM [falling, single point]",
c1ccc(-n2c(Cc3cn4ccsc4n3)nnc2N2CCOCC2)cc1,8.66,,
Cc1ccc(S(=O)(=O)Nc2ccc(-c3nc4cc(NS(=O)(=O)c5ccc(C)cc5)ccc4o3)cc2)cc1,-9.05,,
COc1ccc(NC(=O)CSc2nccn2Cc2ccc(F)cc2)c(OC)c1,33.6,"4.11 µM [rising, full curve]","0.517 µM [rising, full curve]"
Cc1ccc(-c2nn(-c3ccccc3)cc2C(=O)NCC2CCCO2)cc1 (stereo unspecified),4.02,,
O=C(Nc1ccc(O)cc1)c1ccc2c(c1)C(=O)N(Cc1cccnc1)C2=O,2.77,,"14.1 µM [rising, single point]"
CCOP(=O)(c1ccccc1)C(O)c1ccc(Br)cc1 (stereo unspecified),1.15,,
Cc1ccc(S(=O)(=O)c2nc(-c3ccccc3)oc2NCc2cccnc2)cc1,5.98,,"0.291 µM [rising, full curve]"
CC(OC(=O)c1cc2ccccc2o1)C(=O)Nc1ccc(N2CCOCC2)cc1 (stereo unspecified),27.4,,
COc1ccc2[nH]cc(CCNC(=O)C3CCCNC3=O)c2c1 (stereo unspecified),25.3,,"9.2 µM [falling, single point]"

SMILES,cell number change [%],AC50 [1],AC50 [2]
c1csc(-c2ccc3ccccc3n2)c1,-15.6,"6.51 µM [rising, partial curve, poor fit]","6.51 µM [rising, partial curve, poor fit]"
COC(=O)c1ccc(OC)c(Cn2c(=O)n(C)c(=O)c3sccc32)c1,-9.26,,
COc1ccc(N(CC(=O)N/N=C/c2cccs2)S(=O)(=O)c2ccccc2)cc1,,"0.184 µM [rising, full curve]","0.082 µM [rising, partial curve, poor fit]"
CCN1C(=O)C(CC(=O)Nc2ccc(Br)cc2)N(CCCc2ccccc2)C1=S (stereo unspecified),-26.3,,
CCCC(=O)c1cc(F)c(N2CCOCC2)cc1C,-31.4,"1.16 µM [falling, partial curve, poor fit]","6.51 µM [falling, single point]"
O=C(NCCc1ccccc1)c1ccc(CS(=O)(=O)c2ccc(Br)cc2)o1,-52.9,"18.4 µM [falling, single point]","6.51 µM [falling, single point]"
COc1ccc(CCNC(=O)CN2C(=O)NC(CCSC)C2=O)cc1 (stereo unspecified),-25.5,,
COc1ccc(C(=O)Nc2ccnn2C2CCN(Cc3cccnc3)CC2)cc1,18.8,,
CC[n+]1c(/C=C/c2ccc(N(C)C)cc2)ccc2ccccc21,-56,"11.6 µM [falling, partial curve]","1.46 µM [falling, full curve]"
Cc1ccc(S(=O)(=O)NCc2n[nH]c(=S)n2C)cc1,1.83,,"0.146 µM [rising, full curve, poor fit]"
COc1ccc(-c2cc(C(=O)Nc3cccnc3Cl)no2)cc1OC,10.4,,"29.1 µM [rising, single point]"
Cc1ccc(C)c(S(=O)(=O)c2c[nH]c(=S)[nH]c2=O)c1,-19.8,,"0.116 µM [falling, single point]"
CCOc1ccccc1N1CCN(Cc2cc3c(cc2[N+](=O)[O-])OCO3)CC1,-12.5,,"18.4 µM [falling, single point]"
O=C(NCCCN1CCOCC1)c1cccc(S(=O)(=O)N2CCN(c3ccccc3)CC2)c1,23,,
CC(OC(=O)CCN=C1NS(=O)(=O)c2ccccc21)C(=O)NCc1ccccc1 (stereo unspecified),0.536,,"29.1 µM [falling, single point]"
COc1ccc(C)c2sc(N(CCN(C)C)C(=O)c3ccc4ccccc4c3)nc12,2.14,,"0.92 µM [rising, partial curve]"
C/C(CC(=O)Nc1cc(C)ccn1)=N\NC(=O)c1cccc(F)c1,-19.7,"0.184 µM [falling, full curve, poor fit]",
Cc1ccc2c(c1)/C(=C/c1ccccc1C)C(=O)N2,-12.6,,
Cc1cc(S(=O)(=O)N(Cc2cccs2)Cc2ccccc2F)ccc1-n1cnnn1,49.3,"3.26 µM [falling, partial curve, poor fit]",
O=C(NCCc1ccc2c(c1)OCCO2)c1cc2ccccc2o1,14.4,,"1.84 µM [rising, partial curve]"

# Part of the list above, reduced to cell number change [%] and AC50 [2].
SMILES	cell number change [%]	AC50 [2]
O=S(=O)(Nc1ccc2nc(-c3ccc(Br)o3)[nH]c2c1)c1ccccc1	-3.57	3.66 µM [falling, single point]
CC(OC(=O)CCN=C1NS(=O)(=O)c2ccccc21)C(=O)NCc1ccccc1 (stereo unspecified)	0.536	29.1 µM [falling, single point]
